Assay results published in PubChem BioAssay AID758 (NMMLSC, 2007).
In all, about 190,000 compounds went through this assay and about 110 (0.058%) were called active. Inconclusive results, whose numbers are uncertain, are shown with a selection of clear calls.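 Rule for the calls: active = fluorescent GTP binding to Rab7 beads changed by at least 20 points from the 100% baseline, either direction, mostly lower; inconclusive = compound itself probably fluorescent, or too few beads counted; inactive = the rest.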

System: Rab7 GTPase wild type (dog), Bodipy-FL-GTP binding
Test: modulators of GTP binding to Rab7, primary screen, biochemical, wildtype, multiplex bead flow cytometry (AID 758);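 note: median green fluorescence of bound Bodipy-FL-GTP per Rab7 bead population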
Conditions: GST-Rab7 beads, fluorescent GTP binding, at 10 µM, actives lie on both sides, untreated = 100%, excess cold GTP = 0%

SMILES	GTP binding activity (percent of control)
Cc1ccc(C(=O)N/C(=C/c2ccccc2)C(=O)NCC2CCCO2)cc1 (stereo not drawn)	inactive: 102%
Cc1ccc(NC(=S)NCc2ccc(S(N)(=O)=O)cc2)cc1Cl	inconclusive: 99%
Cn1c(O)c(N=NC(=O)c2ccccc2O)c2ccccc21	inactive: 98%
Cc1ccc2c(CC(=O)NC3CCCc4ccccc43)coc2c1 (stereo not drawn)	inconclusive: 104%
c1ccc(Nc2nc(-c3ccccn3)cs2)cc1	inactive: 104%
O=c1[nH]c(/C(=N\O)c2ccccc2)no1	inconclusive: 85%
Cn1c(=O)c2cc(S(=O)(=O)NCCC(=O)NCc3ccccc3Cl)ccc2n(C)c1=O	inactive: 91%
CCOCCCNC(=O)/C(C#N)=C/c1ccc([N+](=O)[O-])o1	inactive: 104%
O=C(c1ccc(-c2ccccc2)cc1)N1CCN(Cc2ccccn2)CC1	inconclusive: 99%
CCc1ccc(CNC(=O)CCc2nnc(CCc3ccc(OC)cc3)o2)nc1	inconclusive: 96%
COc1ccc(C2=Nn3c(nnc3-c3ccco3)SC2)cc1OC	inconclusive: 81%
O=C(c1cc([N+](=O)[O-])ccc1Cl)N1CCN(c2ccccc2)CC1	inconclusive: 102%
CCCCC(CC)CNC(=O)C(=O)C1C(=O)Nc2ccccc21 (stereo not drawn)	inactive: 103%
CCn1c(SCC(=O)c2ccc(Cl)cc2)nnc1-c1ccoc1C	inconclusive: 98%
CCc1cccc(CC)c1-n1c(SCC(=O)c2c(N)n(C)c(=O)n(C)c2=O)nnc1-c1cccnc1	inconclusive: 100%
Cc1ccc(Nc2nnc(SCC(=O)NCCN3C(=O)CSC3=O)s2)cc1	inactive: 97%
CCCCNS(=O)(=O)c1ccc2c(c1)oc(=O)n2CC(=O)OCC	inconclusive: 104%
COCc1c(C(=O)OCc2c(C)noc2C)oc2ccccc12	inconclusive: 96%
Cc1cc(OCc2ccc(C(=O)n3cccn3)o2)ccc1Cl	inconclusive: 97%
O=C(Cc1ccc(Cl)cc1)c1c[nH]c(C(=O)NCCCn2ccnc2)c1	inconclusive: 90%

SMILES	GTP binding activity (percent of control)
COCCNC(=O)CSc1nc2ccccc2c(=O)n1CC1CCCO1 (stereo not drawn)	inconclusive: 95%
Cc1nn2c(NCCCN3CCOCC3)c3c(nc2c1-c1ccccc1)CCC3	inconclusive: 90%
CCN(CC(=O)NC1CCS(=O)(=O)C1)C(=O)/C=C/c1cccs1 (stereo not drawn)	inactive: 97%
Cc1ccc(O)c(NC2=C(Cl)C(=O)N(Cc3ccccc3)C2=O)c1	inconclusive: 91%
Cc1cccc(N(CC(=O)N2CCN(c3ccccc3F)CC2)S(C)(=O)=O)c1	inconclusive: 96%
CC(=O)c1cc(-c2ccc(F)cc2)n(CCC(=O)Nc2cccc(C)n2)c1C	inactive: 105%
O=C(CSc1ccc2nnc(-c3ccc(F)cc3)n2n1)N1CCCc2ccccc21	inactive: 93%
COc1ccc(-c2csc(NC(=O)c3cccs3)c2C(=O)O)cc1OC	inactive: 102%
O=C1NC(=S)N/C1=C\c1ccc(N2CCOCC2)cc1	inconclusive: 90%
NC(=O)COc1ccc(C2c3c(oc4ccccc4c3=O)C(=O)N2CC2CCCO2)cc1 (stereo not drawn)	inconclusive: 89%
CC1CCN(CC(=O)N2CCCc3c2c(=O)oc2ccc(OCc4ccccc4)cc32)CC1	inconclusive: 91%
C/C(CCc1ccc2c(c1)OCO2)=N\NC(=O)c1ccccc1Br	inactive: 99%
COc1ccc(C(c2c(C)n(C)n(-c3ccccc3)c2=O)c2c(C)n(C)n(-c3ccccc3)c2=O)cc1O	inconclusive: 95%
COc1ccc(NC(=O)CO/N=C2\CCCc3nonc32)cc1	inconclusive: 113%
CCCC(=O)N1CCN(c2ccc([N+](=O)[O-])c(NC(C)c3ccccc3)c2)CC1 (stereo not drawn)	inconclusive: 100%
CCCN(CCC)C1=CC(=[N+]2CCCC2)CC(C)(C)C1	inactive: 99%
O=C(O)C1CC(=O)N(c2ccc(F)cc2)C1 (stereo not drawn)	inconclusive: 92%
Nc1nc(-c2ccccc2)nn1S(=O)(=O)c1ccccc1	inconclusive: 96%
Cc1ccc(-c2nc(N)n(S(C)(=O)=O)n2)cc1	inconclusive: 92%
Cc1ccccc1NC(=O)c1sc(NC(=O)COc2ccccc2)c(C#N)c1C	inconclusive: 90%

In the list so far, two contain a cyano group.
SMILES	GTP binding activity (percent of control)
CCOCCCNC(=O)/C(C#N)=C/c1ccc([N+](=O)[O-])o1	inactive: 104%
Cc1ccccc1NC(=O)c1sc(NC(=O)COc2ccccc2)c(C#N)c1C	inconclusive: 90%

Remaining list, next part:

SMILES	GTP binding activity (percent of control)
Cc1ccc(Nc2nc(N)nc(CSC(=S)N3CCOCC3)n2)cc1	inconclusive: 104%
CN(Cc1ccccc1)C(=O)c1nn2cccnc2c1Cl	inactive: 110%
c1ccc(Nc2cc(-c3ccccc3)nc3ncnn23)cc1	inconclusive: 103%
Cc1ccc(C)c(C(=O)COC(=O)c2ccccc2N2C(=O)C3C4CCC(C4)C3C2=O)c1 (stereo not drawn)	inconclusive: 102%
CCC(=O)Nc1nnc(-c2ccco2)o1	inconclusive: 105%
COCc1cc(C)nc(OC)c1C(N)=O	inactive: 105%
O=C(NCCCO)Nc1ccc2nc(-c3ccco3)c(-c3ccco3)nc2c1	inconclusive: 88%
O=C(NN1C(=O)C2C(C1=O)C1C=CC2C12CC2)c1ccncc1 (stereo not drawn)	inconclusive: 91%
COc1ccc(N2C(=O)CCC(C(=O)N3CCN(c4ccccn4)CC3)C2c2ccc(F)cc2)cc1 (stereo not drawn)	inconclusive: 99%
CC1(C)CC(=O)/C(=C(/O)CCCN2C(=O)c3ccccc3C2=O)C(=NC(C)(C)C)C1	inactive: 107%
COc1ccc(NC(=O)COC(=O)c2ccc(S(=O)(=O)N(C)c3ccccc3OC)cc2)c(OC)c1	inactive: 94%
N#CC(c1ccc(Cl)nn1)c1ccc(Cl)cc1Cl (stereo not drawn)	inactive: 105%
COc1ccc2[nH]c3nc(SCC(=O)NNC(=O)c4ccc(OC)c(OC)c4)nnc3c2c1	inconclusive: 85%
CCSc1nnc(NC(=O)C2Cc3ccccc3CN2C(=O)c2ccco2)s1 (stereo not drawn)	inconclusive: 93%
C=CCN(Cc1nc(-c2cc(OC)c3c(c2)OCO3)oc1C)C1CCS(=O)(=O)C1 (stereo not drawn)	inactive: 92%
Cc1ccc(-c2cc(-c3nnc(SCC(=O)NCC(C)C)n3N)c3ccccc3n2)cc1	inconclusive: 103%
NC(CSCc1ccccc1Cl)C(=O)O (stereo not drawn)	inconclusive: 87%
Cc1nc2c(ccc3nc(NC(=O)c4ccc(S(=O)(=O)N(C)C)cc4)sc32)s1	inconclusive: 88%
